Assay results

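Malaria parasite (P. falciparum) lines kept in red blood cells; parasite DNA is measured by SYBR Green fluorescence after lysis, 72 h after compound addition. Each compound was titrated across a series from about 0.000037 to 29 µM. The number is the fitted AC50, the concentration giving a half-maximal change in signal; a lower value means higher potency, whether the curve shows a decrease or an increase. Calls follow the curve class and fit quality: every row here is inconclusive, covering signal-raising curves and weak, poorly fitted, partial or highest-dose-only inhibition curves.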

Values are in µM. Every entry below has the call inconclusive. Only part of the assay is shown, chiefly results filed as inconclusive. A potency from a partial, single-point or poor curve is only a rough figure. Some entries filed as inconclusive have a full curve. The first word of each remark tells which way the curve ran; it can be opposite to the aim of the assay.

SMILES: CN1C(=O)[C@@H](NC(=O)c2cc3ccccc3[nH]2)N=C(c2ccccc2)c2ccccc21
setting: CP217
Potency (µM): 10
curve: inhibitor, single point

SMILES: CN1C(=O)[C@@H](NC(=O)c2cc3ccccc3[nH]2)N=C(c2ccccc2)c2ccccc21
setting: CP250
Potency (µM): 17.78
curve: inhibitor, single point

SMILES: CN1C(=O)[C@@H](NC(=O)c2cc3ccccc3[nH]2)N=C(c2ccccc2)c2ccccc21
setting: CP256
Potency (µM): 10
curve: inhibitor, single point

SMILES: CN1C(=O)[C@@H](NC(=O)c2cc3ccccc3[nH]2)N=C(c2ccccc2)c2ccccc21
setting: CP329
Potency (µM): 21.33
curve: inhibitor, single point

SMILES: CC(=O)[O][Hg][c]1ccccc1
setting: CP266
Potency (µM): 12
curve: inhibitor, single point

SMILES: CC(=O)[O][Hg][c]1ccccc1
setting: CP201
Potency (µM): 8.492
curve: inhibitor, partial curve, poor fit

SMILES: CC(=O)[O][Hg][c]1ccccc1
setting: CP315
Potency (µM): 19.01
curve: inhibitor, single point

SMILES: CC(=O)[O][Hg][c]1ccccc1
setting: DIV30
Potency (µM): 0.6746
curve: inhibitor, full curve, poor fit

SMILES: CC(=O)[O][Hg][c]1ccccc1
setting: CP262
Potency (µM): 1.901
curve: inhibitor, single point

SMILES: CC(=O)[O][Hg][c]1ccccc1
setting: CP329
Potency (µM): 6.012
curve: inhibitor, partial curve, poor fit

SMILES: CC(=O)[O][Hg][c]1ccccc1
setting: C2A
Potency (µM): 12.59
curve: inhibitor, single point

SMILES: CN(C)CCc1c[nH]c2ccc(CC3COC(=O)N3)cc12 (centres unmarked)
setting: CP266
Potency (µM): 0.006
curve: activator, full curve

SMILES: CN(C)CCc1c[nH]c2ccc(CC3COC(=O)N3)cc12 (centres unmarked)
setting: CP262
Potency (µM): 9.528
curve: activator, single point

SMILES: CN(C)CCc1c[nH]c2ccc(CC3COC(=O)N3)cc12 (centres unmarked)
setting: 7G8
Potency (µM): 17.78
curve: inhibitor, single point

SMILES: Nc1nc(N)nc(-c2cc(Cl)ccc2Cl)n1
setting: CP266
Potency (µM): 0.1694
curve: activator, full curve, poor fit

SMILES: CCCN1CCCC[C@H]1C(=O)Nc1c(C)cccc1C
setting: DIV14
Potency (µM): 16.94
curve: inhibitor, single point

Once more, the final 2:

| SMILES | setting | Potency (µM) | curve |
|---|---|---|---|
| `Nc1nc(N)nc(-c2cc(Cl)ccc2Cl)n1` | CP266 | 0.1694 | activator, full curve, poor fit |
| `CCCN1CCCC[C@H]1C(=O)Nc1c(C)cccc1C` | DIV14 | 16.94 | inhibitor, single point |

Source: PubChem BioAssay AID504749 (NCATS, 2011).